This is one part of the list.

Protein sequences, listed by entry. Tags and fused reporters are not part of them. Lines headed by an entry give the natural chain unless they say otherwise; changes in a name come on top.
UniProt P38935: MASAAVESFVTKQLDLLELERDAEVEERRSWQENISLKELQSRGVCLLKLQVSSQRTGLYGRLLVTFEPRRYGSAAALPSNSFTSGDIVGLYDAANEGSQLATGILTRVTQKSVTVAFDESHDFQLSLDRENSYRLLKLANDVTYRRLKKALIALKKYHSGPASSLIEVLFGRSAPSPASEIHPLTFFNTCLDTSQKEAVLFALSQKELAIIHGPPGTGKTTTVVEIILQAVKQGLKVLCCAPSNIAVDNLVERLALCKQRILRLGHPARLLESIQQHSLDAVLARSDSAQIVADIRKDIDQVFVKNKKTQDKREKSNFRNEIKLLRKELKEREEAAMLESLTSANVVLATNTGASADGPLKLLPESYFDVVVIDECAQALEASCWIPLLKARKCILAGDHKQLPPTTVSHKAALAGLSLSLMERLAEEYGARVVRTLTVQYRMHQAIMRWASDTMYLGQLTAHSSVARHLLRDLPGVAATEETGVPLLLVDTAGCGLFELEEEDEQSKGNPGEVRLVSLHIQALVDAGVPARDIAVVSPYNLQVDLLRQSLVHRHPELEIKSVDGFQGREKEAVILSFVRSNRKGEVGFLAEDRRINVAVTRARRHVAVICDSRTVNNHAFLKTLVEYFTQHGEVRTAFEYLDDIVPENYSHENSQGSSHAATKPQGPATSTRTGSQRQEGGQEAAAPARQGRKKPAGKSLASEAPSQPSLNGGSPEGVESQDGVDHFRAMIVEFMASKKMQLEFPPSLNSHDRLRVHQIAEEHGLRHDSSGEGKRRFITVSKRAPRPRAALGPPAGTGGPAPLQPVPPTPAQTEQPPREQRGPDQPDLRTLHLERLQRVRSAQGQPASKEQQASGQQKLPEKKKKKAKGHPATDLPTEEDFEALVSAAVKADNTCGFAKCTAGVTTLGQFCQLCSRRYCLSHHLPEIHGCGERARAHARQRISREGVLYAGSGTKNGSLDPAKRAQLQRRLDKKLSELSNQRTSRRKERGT
UniProt Q9UK53: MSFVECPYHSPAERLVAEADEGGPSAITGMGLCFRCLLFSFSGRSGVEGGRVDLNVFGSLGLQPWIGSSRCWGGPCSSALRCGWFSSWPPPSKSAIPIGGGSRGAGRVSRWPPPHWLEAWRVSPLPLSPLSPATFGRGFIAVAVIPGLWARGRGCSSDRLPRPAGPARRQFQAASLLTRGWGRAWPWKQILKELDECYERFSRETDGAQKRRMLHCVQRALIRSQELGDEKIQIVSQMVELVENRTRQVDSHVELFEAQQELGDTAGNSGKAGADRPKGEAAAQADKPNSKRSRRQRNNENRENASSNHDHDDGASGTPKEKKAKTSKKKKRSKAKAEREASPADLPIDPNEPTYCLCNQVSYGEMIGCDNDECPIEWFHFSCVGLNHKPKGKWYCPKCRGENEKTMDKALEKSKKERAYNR
UniProt Q8WYH8, whole entry, looked up: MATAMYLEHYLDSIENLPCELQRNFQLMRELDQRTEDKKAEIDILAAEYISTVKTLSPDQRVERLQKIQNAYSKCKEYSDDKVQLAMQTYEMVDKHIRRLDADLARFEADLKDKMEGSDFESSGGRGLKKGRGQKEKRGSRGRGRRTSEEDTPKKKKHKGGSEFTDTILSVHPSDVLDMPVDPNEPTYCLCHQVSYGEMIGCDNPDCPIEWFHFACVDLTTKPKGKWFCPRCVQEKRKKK
UniProt Q96D96: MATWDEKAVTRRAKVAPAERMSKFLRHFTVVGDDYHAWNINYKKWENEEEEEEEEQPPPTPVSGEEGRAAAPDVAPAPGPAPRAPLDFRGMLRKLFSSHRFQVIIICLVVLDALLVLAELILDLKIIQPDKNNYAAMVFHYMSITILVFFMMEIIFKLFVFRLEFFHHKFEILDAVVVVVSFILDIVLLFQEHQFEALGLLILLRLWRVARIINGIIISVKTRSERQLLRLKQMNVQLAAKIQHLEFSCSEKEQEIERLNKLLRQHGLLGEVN
UniProt P22692: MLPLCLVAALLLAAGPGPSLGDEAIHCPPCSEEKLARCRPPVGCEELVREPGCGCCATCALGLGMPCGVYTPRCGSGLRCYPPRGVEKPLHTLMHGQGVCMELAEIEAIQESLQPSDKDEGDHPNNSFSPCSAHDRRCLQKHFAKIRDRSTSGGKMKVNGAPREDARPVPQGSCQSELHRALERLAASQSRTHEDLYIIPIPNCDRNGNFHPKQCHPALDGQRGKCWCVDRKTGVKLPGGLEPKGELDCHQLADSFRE
UniProt Q9C086, whole entry, looked up: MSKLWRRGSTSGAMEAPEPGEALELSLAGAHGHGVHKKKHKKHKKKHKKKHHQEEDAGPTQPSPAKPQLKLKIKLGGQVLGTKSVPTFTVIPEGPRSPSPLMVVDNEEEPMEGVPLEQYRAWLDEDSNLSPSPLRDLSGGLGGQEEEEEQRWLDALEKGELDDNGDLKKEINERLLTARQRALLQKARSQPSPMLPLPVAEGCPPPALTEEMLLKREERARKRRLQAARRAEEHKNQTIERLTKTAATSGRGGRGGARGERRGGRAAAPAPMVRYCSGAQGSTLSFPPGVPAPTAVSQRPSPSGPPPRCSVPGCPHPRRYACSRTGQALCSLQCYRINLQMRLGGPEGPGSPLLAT
UniProt A2RU49: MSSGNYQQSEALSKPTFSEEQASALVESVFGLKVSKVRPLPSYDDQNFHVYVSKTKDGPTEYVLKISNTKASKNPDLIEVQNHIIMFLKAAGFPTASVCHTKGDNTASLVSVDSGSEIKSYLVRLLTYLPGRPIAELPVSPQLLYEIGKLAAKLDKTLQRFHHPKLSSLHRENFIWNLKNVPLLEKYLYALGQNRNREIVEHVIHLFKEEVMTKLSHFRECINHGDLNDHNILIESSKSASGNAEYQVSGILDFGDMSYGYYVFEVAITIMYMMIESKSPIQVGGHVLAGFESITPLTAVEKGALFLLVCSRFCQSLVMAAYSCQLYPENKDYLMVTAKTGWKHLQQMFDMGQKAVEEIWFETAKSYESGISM
IGKV3D-7, A0A0C4DH55, UniProt A0A0C4DH55, whole entry, looked up: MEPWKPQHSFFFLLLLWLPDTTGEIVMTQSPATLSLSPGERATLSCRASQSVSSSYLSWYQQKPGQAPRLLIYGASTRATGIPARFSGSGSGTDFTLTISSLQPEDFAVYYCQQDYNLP
UniProt P22304: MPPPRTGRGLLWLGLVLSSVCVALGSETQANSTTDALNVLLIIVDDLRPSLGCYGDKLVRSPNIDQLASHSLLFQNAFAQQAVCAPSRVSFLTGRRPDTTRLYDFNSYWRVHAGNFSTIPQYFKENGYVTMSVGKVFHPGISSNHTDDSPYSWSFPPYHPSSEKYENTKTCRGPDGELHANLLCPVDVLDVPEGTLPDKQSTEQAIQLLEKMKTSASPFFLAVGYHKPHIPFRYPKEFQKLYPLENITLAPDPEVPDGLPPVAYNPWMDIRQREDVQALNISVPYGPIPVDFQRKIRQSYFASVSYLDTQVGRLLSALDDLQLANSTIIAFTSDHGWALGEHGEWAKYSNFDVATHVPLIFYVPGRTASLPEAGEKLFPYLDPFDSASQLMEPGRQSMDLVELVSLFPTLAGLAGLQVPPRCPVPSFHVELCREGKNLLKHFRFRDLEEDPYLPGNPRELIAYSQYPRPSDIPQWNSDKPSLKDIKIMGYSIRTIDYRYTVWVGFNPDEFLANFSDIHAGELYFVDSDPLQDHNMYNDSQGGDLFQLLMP
UniProt Q96EW2: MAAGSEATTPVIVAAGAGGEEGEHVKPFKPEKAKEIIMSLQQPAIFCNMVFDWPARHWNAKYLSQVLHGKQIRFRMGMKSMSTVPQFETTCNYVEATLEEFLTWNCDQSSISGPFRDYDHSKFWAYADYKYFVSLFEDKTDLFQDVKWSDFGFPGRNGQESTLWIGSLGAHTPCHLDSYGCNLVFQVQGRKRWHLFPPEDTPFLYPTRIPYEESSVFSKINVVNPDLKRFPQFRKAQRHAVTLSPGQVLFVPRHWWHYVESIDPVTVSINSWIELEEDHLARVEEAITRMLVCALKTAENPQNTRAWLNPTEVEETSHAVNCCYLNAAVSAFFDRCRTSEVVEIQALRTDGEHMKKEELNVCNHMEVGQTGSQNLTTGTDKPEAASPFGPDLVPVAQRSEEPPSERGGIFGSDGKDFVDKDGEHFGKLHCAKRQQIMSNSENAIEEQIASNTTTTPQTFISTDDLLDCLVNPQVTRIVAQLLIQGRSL
UniProt Q9H7X7: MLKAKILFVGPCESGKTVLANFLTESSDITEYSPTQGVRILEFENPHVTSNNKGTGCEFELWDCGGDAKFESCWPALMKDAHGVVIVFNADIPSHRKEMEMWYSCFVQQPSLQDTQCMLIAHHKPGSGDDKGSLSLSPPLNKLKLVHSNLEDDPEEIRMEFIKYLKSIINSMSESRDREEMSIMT
UniProt Q8NBZ0, whole entry, looked up: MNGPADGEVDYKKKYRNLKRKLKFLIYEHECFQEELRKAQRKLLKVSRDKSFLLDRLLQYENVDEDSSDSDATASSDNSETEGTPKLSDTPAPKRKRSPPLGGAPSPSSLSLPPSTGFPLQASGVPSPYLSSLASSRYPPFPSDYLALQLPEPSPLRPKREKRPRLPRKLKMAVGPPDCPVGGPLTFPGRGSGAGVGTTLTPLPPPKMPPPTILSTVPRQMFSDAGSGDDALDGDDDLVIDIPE
UniProt Q96LU5: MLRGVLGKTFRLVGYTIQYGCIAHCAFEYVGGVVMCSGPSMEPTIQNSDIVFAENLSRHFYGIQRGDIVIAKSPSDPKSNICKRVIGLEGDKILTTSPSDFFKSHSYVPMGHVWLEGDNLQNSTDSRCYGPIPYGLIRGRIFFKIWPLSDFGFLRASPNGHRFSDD
UniProt Q6UWB1, whole entry, looked up: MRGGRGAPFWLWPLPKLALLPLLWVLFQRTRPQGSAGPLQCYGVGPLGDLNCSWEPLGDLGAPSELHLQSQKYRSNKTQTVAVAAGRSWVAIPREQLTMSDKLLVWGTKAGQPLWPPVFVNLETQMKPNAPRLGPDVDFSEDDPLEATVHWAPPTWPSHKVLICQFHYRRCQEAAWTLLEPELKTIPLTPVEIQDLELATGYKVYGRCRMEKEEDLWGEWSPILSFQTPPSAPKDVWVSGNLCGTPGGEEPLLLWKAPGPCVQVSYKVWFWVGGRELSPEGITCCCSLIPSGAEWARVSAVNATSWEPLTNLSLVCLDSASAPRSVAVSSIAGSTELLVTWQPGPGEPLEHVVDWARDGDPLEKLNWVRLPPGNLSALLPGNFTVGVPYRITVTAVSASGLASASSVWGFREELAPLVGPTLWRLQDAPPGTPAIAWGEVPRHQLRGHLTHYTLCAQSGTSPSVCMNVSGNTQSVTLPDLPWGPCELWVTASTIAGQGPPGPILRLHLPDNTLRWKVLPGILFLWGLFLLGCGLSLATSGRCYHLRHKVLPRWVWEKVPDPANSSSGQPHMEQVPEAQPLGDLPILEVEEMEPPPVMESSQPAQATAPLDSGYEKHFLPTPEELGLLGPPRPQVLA
UniProt O60725, whole entry, looked up: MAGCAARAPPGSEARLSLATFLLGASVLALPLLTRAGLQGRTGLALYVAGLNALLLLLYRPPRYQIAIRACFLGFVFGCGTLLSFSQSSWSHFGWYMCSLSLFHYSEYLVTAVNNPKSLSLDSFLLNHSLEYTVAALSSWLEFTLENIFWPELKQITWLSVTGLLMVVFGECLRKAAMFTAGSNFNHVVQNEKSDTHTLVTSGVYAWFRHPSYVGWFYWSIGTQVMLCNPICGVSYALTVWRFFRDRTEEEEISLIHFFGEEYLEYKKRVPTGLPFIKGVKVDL
UniProt P30939: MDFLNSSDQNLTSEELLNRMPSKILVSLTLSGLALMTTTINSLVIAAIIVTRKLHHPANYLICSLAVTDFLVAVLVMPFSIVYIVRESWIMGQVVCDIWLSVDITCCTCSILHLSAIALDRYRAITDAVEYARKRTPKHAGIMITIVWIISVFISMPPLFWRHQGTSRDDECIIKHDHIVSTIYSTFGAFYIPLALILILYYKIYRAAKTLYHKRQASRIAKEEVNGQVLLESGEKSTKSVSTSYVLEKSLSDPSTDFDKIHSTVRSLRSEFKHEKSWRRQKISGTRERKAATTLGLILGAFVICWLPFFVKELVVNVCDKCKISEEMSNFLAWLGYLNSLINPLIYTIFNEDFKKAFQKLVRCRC
UniProt P50213: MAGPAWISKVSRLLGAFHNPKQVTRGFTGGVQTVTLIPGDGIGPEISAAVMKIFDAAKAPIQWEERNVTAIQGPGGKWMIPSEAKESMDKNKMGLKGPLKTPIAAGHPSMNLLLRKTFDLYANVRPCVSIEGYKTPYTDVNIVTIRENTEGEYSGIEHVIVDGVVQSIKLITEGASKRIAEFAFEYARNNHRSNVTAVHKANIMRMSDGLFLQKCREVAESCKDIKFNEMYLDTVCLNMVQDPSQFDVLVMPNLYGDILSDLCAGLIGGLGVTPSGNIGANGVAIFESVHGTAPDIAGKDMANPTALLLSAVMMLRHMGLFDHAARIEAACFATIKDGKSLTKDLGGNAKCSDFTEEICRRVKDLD

Compound in the first test: C#Cc1cccc(Nc2ncnc3cc(OCCOC)c(OCCOC)cc23)c1 [erlotinib]
Description: log2 fold change, soluble protein after heating vs DMSO (PISA); higher = thermal stabilisation; K562 lysate, 10 uM; active = over 0.2 and 3.5 SD of the protein, either way, in both replicates (recomputed). A digest of the protocol: (§1)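 A 30 min treatment with 10 μM compound was applied to crude K562 extract at 1 mg/mL protein in PBS pH 7.4 with 1 mM MgCl2. Heating for 3 min spanned 48°C-58°C, after which aliquots were pooled, adjusted to 0.5% NP-40 at 4°C and spun at 21,000xg for 90 min. TMTpro 16plex LC-MS/MS of the supernatant, with channel sums equalised, gave values recorded as log-two fold change in thermal stability against solvent controls, from duplicates.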
For the target INHBE (UniProt P58166), the log2 fold change was inactive: -0.034.
Consider IGHMBP2 (UniProt P38935), for which the log2 fold change was inactive: -0.032.
As to ING1 (UniProt Q9UK53), the log2 fold change is inactive: 0.005.
In the case of IGLC3 (UniProt P0DOY3), the log2 fold change is inactive: -0.225.
Take IFT52 (UniProt Q9Y366): the log2 fold change was inactive: -0.109.
For the target ING5 (UniProt Q8WYH8), the log2 fold change was inactive: 0.081.
For the target HSPA8 (UniProt E9PN89), the log2 fold change is inactive: 0.02.
Same read-out and setting: under HVCN1 (UniProt Q96D96) stands inactive: -0.085; under IGFBP4 (UniProt P22692), inactive: 0.06; under INO80B (UniProt Q9C086), inactive: 0.093.
Same read-out and setting: to IGHV3-72, A0A4W8ZXM2 belongs inactive: -0.153.
Same read-out and setting: to IFIT3 (UniProt O14879) belongs inactive: 0.221.
Consider IFT57 (UniProt Q9NWB7), for which the log2 fold change is inactive: 0.141.
As to HYKK (UniProt A2RU49), the log2 fold change is inactive: 0.134.
Take HYOU1, A0A494C039: the log2 fold change was inactive: 0.049.
For the target IGKV3D-7, A0A0C4DH55, the log2 fold change is inactive: 0.376.
Regarding IDS (UniProt P22304), the log2 fold change was inactive: -0.068.
For INPP5D (UniProt Q92835), the log2 fold change was inactive: -0.044.
Take IFI16 (UniProt Q16666): the log2 fold change was inactive: 0.081.
On to HSPBAP1 (UniProt Q96EW2), for which the log2 fold change is inactive: 0.064.
Same read-out and setting: under IGKC (UniProt P01834) stands inactive: -0.017; under IFT22 (UniProt Q9H7X7), inactive: -0.077.
For the target INO80E (UniProt Q8NBZ0), the log2 fold change was inactive: 0.008.
In the case of IMMP1L (UniProt Q96LU5), the log2 fold change was inactive: -0.019.
Still for that read-out and setting: under INPP5E (UniProt Q9NRR6) stands inactive: 0.118; under IL27RA (UniProt Q6UWB1), inactive: -0.131.

Compound in another test: C/C(=N\NC(=O)C1=CC(=CC=C1)S(=O)(=O)N2CCOCC2)/C3=C(C=CC(=C3)Cl)O
The description is as above. The method in brief: as §1
For HYDIN (UniProt Q4G0P3), the log2 fold change is inactive: -0.022.
In the case of IMPDH2 (UniProt H0Y4R1), the log2 fold change was inactive: -0.014.
The same measure, in the same setting: under ICMT (UniProt O60725) stands inactive: 0.085.
As for HTR1F (UniProt P30939), the log2 fold change is inactive: 0.28.
On the same count and under the same terms, to IDH3A isoform 2 (UniProt P50213) belongs inactive: 0.007; to IGSF1 isoform 4 (UniProt Q8N6C5), inactive: -0.079.
Turning to IFT122 isoform 5 (UniProt Q9HBG6), the log2 fold change was inactive: 0.206.
Turning to HTD2 (UniProt P86397), the log2 fold change was inactive: -0.085.

Compound in another test: C1=CC(=CC=C1C2=NC3=C(N2)C=C(C=C3)C(=O)N)OC4=CC=C(C=C4)Cl
The test is described as above. The method in brief:
as §1
Turning to INHBE (UniProt P58166), the log2 fold change was inactive: 0.084.
Same read-out and setting: under IGHMBP2 (UniProt P38935) stands inactive: -0.026.
ING1 (UniProt Q9UK53): the log2 fold change is inactive: 0.07.
On the same count and under the same terms, to IGLC3 (UniProt P0DOY3) belongs inactive: -0.208; to IFT52 (UniProt Q9Y366), inactive: 0.359.
Turning to ING5 (UniProt Q8WYH8), the log2 fold change was inactive: -0.021.
As to HSPA8 (UniProt E9PN89), the log2 fold change is inactive: -0.004.
For HVCN1 (UniProt Q96D96), the log2 fold change is inactive: 0.181.
IGFBP4 (UniProt P22692): the log2 fold change is inactive: 0.025.
For the target INO80B (UniProt Q9C086), the log2 fold change is inactive: -0.064.
Take IGHV3-72, A0A4W8ZXM2: the log2 fold change is inactive: 0.049.
As for IFIT3 (UniProt O14879), the log2 fold change was inactive: -0.005.
Same read-out and setting: to IFT57 (UniProt Q9NWB7) belongs inactive: -0.136.
Same read-out and setting: under HYKK (UniProt A2RU49) stands inactive: -0.225; under HYOU1, A0A494C039, inactive: -0.171; under IGKV3D-7, A0A0C4DH55, inactive: -0.03.
The same measure, in the same setting: to IDS (UniProt P22304) belongs inactive: 0.02; to INPP5D (UniProt Q92835), inactive: 0; to IFI16 (UniProt Q16666), inactive: -0.037.
For the target HSPBAP1 (UniProt Q96EW2), the log2 fold change is inactive: -0.098.
Take IGKC (UniProt P01834): the log2 fold change is inactive: -0.136.
Same read-out and setting: under IFT22 (UniProt Q9H7X7) stands inactive: 0.036; under INO80E (UniProt Q8NBZ0), inactive: 0.072; under IMMP1L (UniProt Q96LU5), inactive: 0.006.
Same read-out and setting: under INPP5E (UniProt Q9NRR6) stands inactive: 0.136.
Same read-out and setting: to IL27RA (UniProt Q6UWB1) belongs inactive: -0.424.

Compound in a further test: C1=CC2=C(C=CC(=C2)/C=C\3/C(=O)NC(=NCC4=CC=CS4)S3)N=C1
Described as above. A digest of the protocol: as §1
As to HYDIN (UniProt Q4G0P3), the log2 fold change is inactive: 0.005.
IMPDH2 (UniProt H0Y4R1): the log2 fold change was inactive: 0.023.
On the same count and under the same terms, under ICMT (UniProt O60725) stands inactive: -0.01; under HTR1F (UniProt P30939), inactive: -0.02.
Same read-out and setting: under IDH3A isoform 2 (UniProt P50213) stands inactive: 0.064; under IGSF1 isoform 4 (UniProt Q8N6C5), inactive: 0.115.
For IFT122 isoform 5 (UniProt Q9HBG6), the log2 fold change is inactive: 0.
On the same count and under the same terms, to HTD2 (UniProt P86397) belongs inactive: -0.086.

Compound in the next test: C1=CC2=NC=CN=C2C=C1/C=C/3\C(=O)NC(=O)S3
Described as above. A digest of the protocol: as §1
Take IGHMBP2 (UniProt P38935): the log2 fold change was inactive: -0.112.
For ING1 (UniProt Q9UK53), the log2 fold change was inactive: -0.222.
For IGLC3 (UniProt P0DOY3), the log2 fold change was inactive: 0.01.
As to ING5 (UniProt Q8WYH8), the log2 fold change is inactive: 0.044.
The same measure, in the same setting: under HSPA8 (UniProt E9PN89) stands inactive: -0.095; under HVCN1 (UniProt Q96D96), inactive: 0.031; under IGFBP4 (UniProt P22692), inactive: 0.218.
IMPDH2 (UniProt H0Y4R1): the log2 fold change is inactive: -0.118.
As to ICMT (UniProt O60725), the log2 fold change was inactive: -0.049.
Regarding HYKK (UniProt A2RU49), the log2 fold change is inactive: -0.107.
Same read-out and setting: under HYOU1, A0A494C039 stands inactive: 0.072.
IDS (UniProt P22304): the log2 fold change was inactive: 0.101.
Turning to HTR1F (UniProt P30939), the log2 fold change was inactive: 0.213.
IDH3A isoform 2 (UniProt P50213): the log2 fold change was inactive: 0.059.
Take HSPBAP1 (UniProt Q96EW2): the log2 fold change is inactive: -0.079.
IGKC (UniProt P01834): the log2 fold change was inactive: 0.321.
As to IFT22 (UniProt Q9H7X7), the log2 fold change was inactive: -0.158.
As for INO80E (UniProt Q8NBZ0), the log2 fold change was inactive: 0.175.
On to IMMP1L (UniProt Q96LU5), for which the log2 fold change is inactive: -0.096.
On to HTD2 (UniProt P86397), for which the log2 fold change was inactive: 0.019.
As to IL27RA (UniProt Q6UWB1), the log2 fold change is inactive: -0.161.
